The target of one series is T1, BssHII (UniProt O30876).
T1 sequence (looked up, limits assumed): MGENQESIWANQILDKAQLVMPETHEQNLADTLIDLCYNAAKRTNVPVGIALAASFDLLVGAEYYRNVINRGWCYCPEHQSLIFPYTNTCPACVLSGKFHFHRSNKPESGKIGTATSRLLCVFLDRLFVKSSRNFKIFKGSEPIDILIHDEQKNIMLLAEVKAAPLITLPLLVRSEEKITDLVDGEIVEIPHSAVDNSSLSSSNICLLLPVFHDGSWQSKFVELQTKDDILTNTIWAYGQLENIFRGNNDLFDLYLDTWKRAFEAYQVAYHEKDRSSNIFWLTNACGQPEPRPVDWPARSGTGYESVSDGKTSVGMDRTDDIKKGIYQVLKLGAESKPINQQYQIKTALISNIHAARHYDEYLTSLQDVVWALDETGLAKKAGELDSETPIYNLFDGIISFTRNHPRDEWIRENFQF
As to the kind of experiment: enzyme reaction in vitro. The conditions noted are these: single GCGCGC site is cut by BssHII; purified native protein.

Series [1] addresses T2, Mca1617 restriction endonuclease (printed Mcal617), co-expressed with Mca1616 methyltransferase (Methylococcus capsulatus) (UniProt Q607Y4).
T2 sequence (looked up, limits assumed): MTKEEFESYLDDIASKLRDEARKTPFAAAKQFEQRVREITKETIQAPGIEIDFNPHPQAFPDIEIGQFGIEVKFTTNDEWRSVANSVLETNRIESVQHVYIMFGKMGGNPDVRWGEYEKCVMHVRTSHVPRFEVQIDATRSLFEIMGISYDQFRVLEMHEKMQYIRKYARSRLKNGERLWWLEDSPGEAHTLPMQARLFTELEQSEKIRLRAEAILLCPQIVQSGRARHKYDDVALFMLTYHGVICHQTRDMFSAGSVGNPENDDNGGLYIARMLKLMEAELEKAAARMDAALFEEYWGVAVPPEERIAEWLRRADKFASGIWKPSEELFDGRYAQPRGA
As to the kind of experiment: enzyme reaction in vitro. The conditions noted are these: single GCGCGC site not detectably cut; protein in an extract.

For some assays here: Negatives hold for the conditions tested. Tags and fusion partners may be left off the protein sequences shown.

Take “GCGCGC (double strand) [PhiX174 DNA (single GCGCGC site)]”: the “activity on this sequence” value with BssHII is on record as “active”; in series [1], “not active”.

(Values after patent publication US20060014179.)
